Assay results: the supplement of paper PMC12823440, “Inhibitors supercharge kinase turnover through native proteolytic circuits” (Nature, 2025)
Where a name gives a salt, the structure may show the parent alone. This is one part of the list. The calls rarely recur for the same compound in another form.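 In K562 cells expressing nanoluciferase-fused kinases, luminescence was recorded at 4 h intervals between 2 and 18 h, normalized as percent of control with DMSO at 100% and a positive control at 0%. A significant (2 sigma) signal drop marks a time point as decreased. The authors' rule for a hit is not shown and takes in more than the number of time points.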

Chains of the proteins cited; added tags and fusions are not shown. Lines headed by an entry give the natural chain unless they say otherwise; changes in a name come on top.
UniProt O75460: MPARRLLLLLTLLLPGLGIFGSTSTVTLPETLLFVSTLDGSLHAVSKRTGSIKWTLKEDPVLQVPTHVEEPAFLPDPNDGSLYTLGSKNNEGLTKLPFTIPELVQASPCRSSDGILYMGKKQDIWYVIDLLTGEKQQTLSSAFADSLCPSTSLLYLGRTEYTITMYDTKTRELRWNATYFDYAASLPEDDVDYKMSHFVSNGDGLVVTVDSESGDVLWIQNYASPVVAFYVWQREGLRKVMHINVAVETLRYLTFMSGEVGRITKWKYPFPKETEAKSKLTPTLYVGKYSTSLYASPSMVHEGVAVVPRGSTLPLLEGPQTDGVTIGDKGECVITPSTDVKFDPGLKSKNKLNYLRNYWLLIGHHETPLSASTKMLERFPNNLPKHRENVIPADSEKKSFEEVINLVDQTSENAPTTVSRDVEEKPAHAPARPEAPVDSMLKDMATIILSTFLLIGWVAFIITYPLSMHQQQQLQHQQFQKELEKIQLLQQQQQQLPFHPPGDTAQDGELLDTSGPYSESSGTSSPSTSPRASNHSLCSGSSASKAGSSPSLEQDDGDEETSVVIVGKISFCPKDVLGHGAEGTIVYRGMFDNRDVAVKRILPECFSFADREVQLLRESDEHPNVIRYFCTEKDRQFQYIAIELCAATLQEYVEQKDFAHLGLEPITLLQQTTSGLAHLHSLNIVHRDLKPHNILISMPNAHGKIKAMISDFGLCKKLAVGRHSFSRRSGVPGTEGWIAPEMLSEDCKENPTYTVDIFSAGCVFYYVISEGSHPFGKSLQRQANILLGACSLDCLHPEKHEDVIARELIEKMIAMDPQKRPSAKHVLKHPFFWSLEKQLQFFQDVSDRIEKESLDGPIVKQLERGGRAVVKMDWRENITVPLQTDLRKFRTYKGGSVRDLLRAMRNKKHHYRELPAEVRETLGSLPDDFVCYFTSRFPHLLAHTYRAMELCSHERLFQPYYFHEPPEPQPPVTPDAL
UniProt P11362, whole entry, looked up: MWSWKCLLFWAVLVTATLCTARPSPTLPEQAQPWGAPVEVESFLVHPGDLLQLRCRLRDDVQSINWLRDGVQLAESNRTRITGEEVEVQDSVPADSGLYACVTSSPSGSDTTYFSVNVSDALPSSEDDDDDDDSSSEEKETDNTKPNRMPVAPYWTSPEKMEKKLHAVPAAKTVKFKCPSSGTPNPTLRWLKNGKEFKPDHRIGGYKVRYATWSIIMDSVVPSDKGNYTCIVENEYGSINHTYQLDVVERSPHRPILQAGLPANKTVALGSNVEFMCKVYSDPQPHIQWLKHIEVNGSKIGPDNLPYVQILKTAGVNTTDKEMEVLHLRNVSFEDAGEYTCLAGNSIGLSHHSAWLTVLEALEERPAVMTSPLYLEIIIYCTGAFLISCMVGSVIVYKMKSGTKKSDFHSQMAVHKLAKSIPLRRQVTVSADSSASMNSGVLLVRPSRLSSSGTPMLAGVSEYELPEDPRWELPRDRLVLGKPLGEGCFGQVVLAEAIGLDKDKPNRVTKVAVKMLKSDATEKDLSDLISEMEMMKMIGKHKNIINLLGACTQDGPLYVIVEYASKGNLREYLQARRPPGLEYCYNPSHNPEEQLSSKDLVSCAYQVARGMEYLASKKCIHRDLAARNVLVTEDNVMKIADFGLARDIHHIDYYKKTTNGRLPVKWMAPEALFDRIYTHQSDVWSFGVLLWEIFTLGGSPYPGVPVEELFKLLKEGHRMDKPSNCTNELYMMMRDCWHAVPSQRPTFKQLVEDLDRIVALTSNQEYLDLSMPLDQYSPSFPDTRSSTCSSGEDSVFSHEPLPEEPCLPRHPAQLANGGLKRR
UniProt P21802, whole entry, looked up: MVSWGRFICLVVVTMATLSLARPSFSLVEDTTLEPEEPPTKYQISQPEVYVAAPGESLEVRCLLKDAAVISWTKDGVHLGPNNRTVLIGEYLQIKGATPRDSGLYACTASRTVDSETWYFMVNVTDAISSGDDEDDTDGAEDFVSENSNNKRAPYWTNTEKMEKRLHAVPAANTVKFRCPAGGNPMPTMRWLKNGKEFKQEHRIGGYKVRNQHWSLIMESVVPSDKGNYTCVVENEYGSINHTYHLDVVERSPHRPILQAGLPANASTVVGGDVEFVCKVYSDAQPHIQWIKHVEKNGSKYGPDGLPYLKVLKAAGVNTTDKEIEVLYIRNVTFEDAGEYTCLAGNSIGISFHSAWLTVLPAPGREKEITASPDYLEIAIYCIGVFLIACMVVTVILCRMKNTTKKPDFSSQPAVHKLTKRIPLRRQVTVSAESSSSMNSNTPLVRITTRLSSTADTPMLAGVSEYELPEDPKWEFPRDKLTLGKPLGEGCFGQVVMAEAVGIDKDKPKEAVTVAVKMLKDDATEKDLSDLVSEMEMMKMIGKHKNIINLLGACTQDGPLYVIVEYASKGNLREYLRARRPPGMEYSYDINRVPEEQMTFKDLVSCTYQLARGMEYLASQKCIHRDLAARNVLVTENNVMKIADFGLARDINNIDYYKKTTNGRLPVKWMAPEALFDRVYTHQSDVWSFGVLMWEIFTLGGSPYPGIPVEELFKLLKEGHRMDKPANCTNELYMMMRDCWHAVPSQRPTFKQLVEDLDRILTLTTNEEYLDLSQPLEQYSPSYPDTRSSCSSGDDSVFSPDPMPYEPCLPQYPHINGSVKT
UniProt P36888, whole entry: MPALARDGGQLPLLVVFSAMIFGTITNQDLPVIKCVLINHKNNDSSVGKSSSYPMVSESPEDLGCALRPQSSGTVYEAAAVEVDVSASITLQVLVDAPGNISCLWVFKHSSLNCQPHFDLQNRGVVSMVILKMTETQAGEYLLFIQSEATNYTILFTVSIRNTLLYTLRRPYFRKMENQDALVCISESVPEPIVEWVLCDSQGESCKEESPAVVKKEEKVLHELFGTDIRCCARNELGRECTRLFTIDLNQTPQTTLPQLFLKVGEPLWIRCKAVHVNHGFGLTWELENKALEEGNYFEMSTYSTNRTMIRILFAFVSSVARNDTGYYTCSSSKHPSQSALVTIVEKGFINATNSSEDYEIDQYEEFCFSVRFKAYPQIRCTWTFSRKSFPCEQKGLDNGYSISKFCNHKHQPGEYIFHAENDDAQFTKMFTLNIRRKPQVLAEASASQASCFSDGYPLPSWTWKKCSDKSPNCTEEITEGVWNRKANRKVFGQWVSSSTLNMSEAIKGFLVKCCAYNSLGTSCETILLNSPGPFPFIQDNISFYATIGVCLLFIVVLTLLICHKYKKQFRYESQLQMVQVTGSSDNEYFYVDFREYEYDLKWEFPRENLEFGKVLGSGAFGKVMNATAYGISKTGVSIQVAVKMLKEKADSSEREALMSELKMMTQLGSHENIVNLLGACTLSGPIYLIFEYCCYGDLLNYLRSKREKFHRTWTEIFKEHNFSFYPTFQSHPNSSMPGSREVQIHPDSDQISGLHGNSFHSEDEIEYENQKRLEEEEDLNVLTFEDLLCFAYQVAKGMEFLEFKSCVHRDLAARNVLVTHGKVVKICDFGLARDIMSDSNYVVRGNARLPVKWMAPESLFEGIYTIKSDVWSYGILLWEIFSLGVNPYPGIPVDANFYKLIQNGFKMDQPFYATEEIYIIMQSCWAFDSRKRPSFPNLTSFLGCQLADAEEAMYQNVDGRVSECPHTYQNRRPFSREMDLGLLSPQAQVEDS
UniProt P06241, whole entry, looked up: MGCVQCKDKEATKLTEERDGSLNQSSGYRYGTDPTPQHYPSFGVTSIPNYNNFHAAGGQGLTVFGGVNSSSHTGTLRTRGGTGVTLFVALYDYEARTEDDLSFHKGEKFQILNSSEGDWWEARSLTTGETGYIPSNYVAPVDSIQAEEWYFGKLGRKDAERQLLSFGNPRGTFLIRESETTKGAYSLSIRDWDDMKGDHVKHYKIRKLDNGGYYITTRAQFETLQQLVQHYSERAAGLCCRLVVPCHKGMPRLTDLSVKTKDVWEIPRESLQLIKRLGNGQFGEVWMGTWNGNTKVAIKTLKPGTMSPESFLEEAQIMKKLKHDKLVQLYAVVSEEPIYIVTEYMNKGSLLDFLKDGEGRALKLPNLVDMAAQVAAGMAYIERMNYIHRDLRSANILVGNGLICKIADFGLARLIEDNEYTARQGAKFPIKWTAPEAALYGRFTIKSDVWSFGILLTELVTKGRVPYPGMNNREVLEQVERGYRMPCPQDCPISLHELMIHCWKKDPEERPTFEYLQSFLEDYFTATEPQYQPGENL
UniProt P49840: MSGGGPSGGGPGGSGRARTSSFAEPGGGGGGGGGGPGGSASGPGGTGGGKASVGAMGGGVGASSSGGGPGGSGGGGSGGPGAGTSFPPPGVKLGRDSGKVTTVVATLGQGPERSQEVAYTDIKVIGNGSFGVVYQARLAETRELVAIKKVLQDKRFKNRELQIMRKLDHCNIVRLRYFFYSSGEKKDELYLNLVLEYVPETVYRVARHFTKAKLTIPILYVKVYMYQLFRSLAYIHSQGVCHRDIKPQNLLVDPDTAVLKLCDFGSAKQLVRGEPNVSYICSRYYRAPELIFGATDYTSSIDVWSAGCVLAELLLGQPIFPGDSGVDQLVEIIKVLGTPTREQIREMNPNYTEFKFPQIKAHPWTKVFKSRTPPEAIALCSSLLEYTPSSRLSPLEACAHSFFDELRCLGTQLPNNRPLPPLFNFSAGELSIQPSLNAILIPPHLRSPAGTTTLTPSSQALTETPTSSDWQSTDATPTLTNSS
UniProt P14616: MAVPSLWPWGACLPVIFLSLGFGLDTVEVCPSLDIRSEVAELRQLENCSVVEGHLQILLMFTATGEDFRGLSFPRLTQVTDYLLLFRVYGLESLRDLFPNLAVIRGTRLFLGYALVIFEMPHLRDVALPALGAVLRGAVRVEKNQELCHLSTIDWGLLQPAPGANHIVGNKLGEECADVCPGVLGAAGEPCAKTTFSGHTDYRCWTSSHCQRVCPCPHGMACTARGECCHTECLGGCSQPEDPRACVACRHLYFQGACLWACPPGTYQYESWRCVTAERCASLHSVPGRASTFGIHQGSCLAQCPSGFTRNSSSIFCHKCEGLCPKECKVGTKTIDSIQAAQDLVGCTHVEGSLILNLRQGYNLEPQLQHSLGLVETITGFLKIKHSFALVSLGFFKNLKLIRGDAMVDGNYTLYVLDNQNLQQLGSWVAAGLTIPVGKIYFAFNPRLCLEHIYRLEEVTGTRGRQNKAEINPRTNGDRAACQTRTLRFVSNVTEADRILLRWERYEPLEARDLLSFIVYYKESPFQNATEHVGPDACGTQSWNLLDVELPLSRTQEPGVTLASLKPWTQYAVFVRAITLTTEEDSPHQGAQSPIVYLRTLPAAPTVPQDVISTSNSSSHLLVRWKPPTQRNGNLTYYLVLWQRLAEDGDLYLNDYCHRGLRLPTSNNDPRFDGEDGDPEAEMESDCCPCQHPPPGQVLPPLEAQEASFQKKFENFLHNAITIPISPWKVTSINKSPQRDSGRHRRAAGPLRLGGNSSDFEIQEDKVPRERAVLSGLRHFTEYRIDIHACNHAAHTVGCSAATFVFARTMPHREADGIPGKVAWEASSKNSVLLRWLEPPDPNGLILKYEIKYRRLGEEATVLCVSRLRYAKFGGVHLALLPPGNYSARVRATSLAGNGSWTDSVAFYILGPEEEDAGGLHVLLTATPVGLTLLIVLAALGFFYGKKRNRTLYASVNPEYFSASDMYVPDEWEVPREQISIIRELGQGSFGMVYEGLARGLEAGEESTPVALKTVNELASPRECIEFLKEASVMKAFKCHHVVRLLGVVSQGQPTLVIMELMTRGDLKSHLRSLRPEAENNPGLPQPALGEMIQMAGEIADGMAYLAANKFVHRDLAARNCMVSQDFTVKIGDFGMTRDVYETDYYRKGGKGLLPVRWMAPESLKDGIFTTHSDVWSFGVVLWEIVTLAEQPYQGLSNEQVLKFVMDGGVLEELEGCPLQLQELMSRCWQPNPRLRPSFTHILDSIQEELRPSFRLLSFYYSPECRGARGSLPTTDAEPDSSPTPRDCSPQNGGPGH

Columns and labels:
Test in all cases: kinase-Nluc reporter destabilization hit call (1 = scored as downregulated) (binary); higher = compound decreases kinase abundance
Conditions in all cases: K562; 2-18 h
[1] = molecular target: ERN1 (UniProt O75460)
[2] = molecular target: FGFR1 (UniProt P11362)
[3] = molecular target: FGFR2 (UniProt P21802)
[4] = molecular target: FGFR3 (UniProt P22607)
[5] = molecular target: FGR (UniProt P09769)
[6] = molecular target: FLT3 (UniProt P36888)
[7] = molecular target: FYN (UniProt P06241)
[8] = molecular target: GSK3A (UniProt P49840)
[9] = molecular target: HER2 (UniProt P04626)
[10] = molecular target: INSRR (UniProt P14616)

Row | SMILES | kinase-Nluc reporter destabilization hit call [1] | kinase-Nluc reporter destabilization hit call [2] | kinase-Nluc reporter destabilization hit call [3] | kinase-Nluc reporter destabilization hit call [4] | kinase-Nluc reporter destabilization hit call [5] | kinase-Nluc reporter destabilization hit call [6] | kinase-Nluc reporter destabilization hit call [7] | kinase-Nluc reporter destabilization hit call [8] | kinase-Nluc reporter destabilization hit call [9] | kinase-Nluc reporter destabilization hit call [10]
1 | C[C@H](CCC(=O)O)C[C@H](C)C[C@H](C)C(=O)/C=C(\O)[C@H](C)C[C@H](C)C/C=C/[C@@H](C)[C@@H](O)[C@@H](C)[C@@H](O)C[C@@H]1CC[C@@](C)([C@H]2CC[C@@](C)([C@@H](C)O)O2)O1 [Ionomycin (calcium)] (2.5 µM) | inactive: 0 | inactive: 0 | inactive: 0 | inactive: 0 | inactive: 0 | inactive: 0 | inactive: 0 | inactive: 0 | inactive: 0 | inactive: 0
2 | C[C@H]1CC[C@]2(NC1)O[C@H]1C[C@H]3[C@@H]4CC[C@H]5C[C@@H](O)CC[C@]5(C)[C@H]4CC[C@]3(C)[C@H]1[C@@H]2C [Tomatidine] (2 µM) | inactive: 0 | inactive: 0 | inactive: 0 | inactive: 0 | inactive: 0 | inactive: 0 | inactive: 0 | inactive: 0 | inactive: 0 | inactive: 0
3 | CCN1CCN(C(=O)Cc2ccc(Nc3ncc(F)c(Nc4ccc(C(=O)Nc5ccccc5Cl)cc4)n3)cc2)CC1 (2.5 µM) | inactive: 0 | inactive: 0 | inactive: 0 | inactive: 0 | inactive: 0 | inactive: 0 | inactive: 0 | inactive: 0 | inactive: 0 | inactive: 0
4 | O=C1C=CC[C@@H]2[C@H]3CCCN4CCC[C@@H](CN12)[C@@H]34 [Sophocarpine] (10 µM) | inactive: 0 | inactive: 0 | inactive: 0 | inactive: 0 | inactive: 0 | inactive: 0 | inactive: 0 | inactive: 0 | inactive: 0 | inactive: 0
5 | O=c1cc(O)c2ccccc2o1 [4-Hydroxycoumarin] (10 µM) | inactive: 0 | inactive: 0 | inactive: 0 | inactive: 0 | inactive: 0 | inactive: 0 | inactive: 0 | inactive: 0 | inactive: 0 | inactive: 0
6 | C[C@H]1CC[C@]2(NC1)O[C@H]1C[C@H]3[C@@H]4CC[C@H]5C[C@@H](O)CC[C@]5(C)[C@H]4CC[C@]3(C)[C@H]1[C@@H]2C [Tomatidine (hydrochloride)] (10 µM) | inactive: 0 | inactive: 0 | inactive: 0 | inactive: 0 | inactive: 0 | inactive: 0 | inactive: 0 | inactive: 0 | inactive: 0 | inactive: 0
7 | O=C(O)c1nn(Cc2ccc(Cl)cc2Cl)c2ccccc12 [Lonidamine] (10 µM) | inactive: 0 | inactive: 0 | inactive: 0 | inactive: 0 | inactive: 0 | inactive: 0 | inactive: 0 | inactive: 0 | inactive: 0 | inactive: 0
8 | Cc1ccccc1-n1c(Cn2ncc3c(N)ncnc32)nc2cccc(C)c2c1=O (10 µM) | inactive: 0 | inactive: 0 | inactive: 0 | inactive: 0 | inactive: 0 | inactive: 0 | inactive: 0 | inactive: 0 | inactive: 0 | inactive: 0
9 | C/C=C(/C)C(=O)O[C@H]1[C@@H]2[C@H](C)C(=O)O[C@@H]2C[C@@H](C)[C@@H]2C=CC(=O)[C@]21C [Brevilin A] (2.5 µM) | inactive: 0 | inactive: 0 | inactive: 0 | inactive: 0 | inactive: 0 | inactive: 0 | inactive: 0 | inactive: 0 | inactive: 0 | inactive: 0
10 | COc1cc2c(cc1F)C(c1ccccc1Cl)=Nc1c(n[nH]c1C)N2 (0.5 µM) | inactive: 0 | inactive: 0 | inactive: 0 | inactive: 0 | inactive: 0 | inactive: 0 | inactive: 0 | inactive: 0 | inactive: 0 | inactive: 0
11 | COc1ccc2c(c1)[nH]c1c(C)nccc12 [Harmine] (10 µM) | inactive: 0 | inactive: 0 | inactive: 0 | inactive: 0 | inactive: 0 | inactive: 0 | inactive: 0 | inactive: 0 | inactive: 0 | inactive: 0
12 | CC(=O)OC(C)(C)/C=C/C(=O)[C@](C)(O)[C@H]1[C@H](O)C[C@@]2(C)[C@@H]3CC=C4[C@@H](C=C(O)C(=O)C4(C)C)[C@]3(C)C(=O)C[C@]12C [Cucurbitacin E] (2.5 µM) | inactive: 0 | inactive: 0 | inactive: 0 | inactive: 0 | inactive: 0 | inactive: 0 | inactive: 0 | inactive: 0 | inactive: 0 | inactive: 0
13 | CC(C)=CC[C@@H](OC(=O)CC(C)(C)O)C1=CC(=O)c2c(O)ccc(O)c2C1=O [β-Hydroxyisovalerylshikonin] (2.5 µM) | inactive: 0 | inactive: 0 | inactive: 0 | inactive: 0 | inactive: 0 | inactive: 0 | inactive: 0 | inactive: 0 | inactive: 0 | inactive: 0
14 | C=CC(=O)Nc1ccc2[nH]c(=O)n(C3CCN(Cc4ccc(-c5nc6cc[nH]c(=O)c6cc5-c5ccccc5)cc4)CC3)c2c1 [Borussertib] (10 µM) | inactive: 0 | inactive: 0 | inactive: 0 | inactive: 0 | inactive: 0 | inactive: 0 | inactive: 0 | inactive: 0 | inactive: 0 | inactive: 0
15 | O=Cc1cn(Cc2ccc(Cl)cc2)c2ccccc12 [Oncrasin-1] (10 µM) | inactive: 0 | inactive: 0 | inactive: 0 | inactive: 0 | inactive: 0 | inactive: 0 | inactive: 0 | inactive: 0 | inactive: 0 | inactive: 0
16 | COC[C@H]1OC(=O)c2coc3c2[C@@]1(C)C1=C(C3=O)[C@@H]2CCC(=O)[C@@]2(C)C[C@H]1OC(C)=O [Wortmannin] (2.5 µM) | inactive: 0 | inactive: 0 | inactive: 0 | inactive: 0 | inactive: 0 | inactive: 0 | active: 1 | inactive: 0 | inactive: 0 | inactive: 0
17 | CC(C)(C)c1cc(C=C(C#N)C#N)cc(Br)c1O (2.5 µM) | inactive: 0 | inactive: 0 | inactive: 0 | inactive: 0 | inactive: 0 | inactive: 0 | inactive: 0 | inactive: 0 | inactive: 0 | inactive: 0
18 | NCCc1cn(S(=O)(=O)c2c(Cl)nc3sccn23)c2ccccc12 (10 µM) | inactive: 0 | inactive: 0 | inactive: 0 | inactive: 0 | inactive: 0 | inactive: 0 | inactive: 0 | inactive: 0 | inactive: 0 | inactive: 0
19 | C[C@H](Nc1ncnc2[nH]cnc12)c1nc2ccc(F)cc2c(=O)n1-c1ccccc1 [Acalisib] (10 µM) | inactive: 0 | inactive: 0 | inactive: 0 | inactive: 0 | inactive: 0 | inactive: 0 | inactive: 0 | inactive: 0 | inactive: 0 | inactive: 0
20 | CCCCCCCCCCCCCCCCOC[C@H](COP(=O)([O-])OCC[N+](C)(C)C)OC(C)=O (10 µM) | inactive: 0 | inactive: 0 | inactive: 0 | inactive: 0 | inactive: 0 | inactive: 0 | inactive: 0 | inactive: 0 | inactive: 0 | inactive: 0
21 | CC(=O)Oc1ccc(/C=C/c2cc(OC(C)=O)cc(OC(C)=O)c2)cc1 [Triacetylresveratrol] (10 µM) | inactive: 0 | inactive: 0 | inactive: 0 | inactive: 0 | inactive: 0 | inactive: 0 | inactive: 0 | inactive: 0 | inactive: 0 | inactive: 0
22 | C=CC(=O)N[C@H]1C=C(C)c2c(-c3cnc4ccccc4c3)c3c(N)ncnc3n2C1 (10 µM) | inactive: 0 | inactive: 0 | inactive: 0 | inactive: 0 | inactive: 0 | inactive: 0 | inactive: 0 | inactive: 0 | inactive: 0 | inactive: 0
23 | O=C1c2ccccc2C(=O)c2c1cccc2-c1cnn(C2CCNCC2)c1 [PDK4-IN-1 (hydrochloride)] (10 µM) | inactive: 0 | inactive: 0 | inactive: 0 | inactive: 0 | inactive: 0 | inactive: 0 | inactive: 0 | inactive: 0 | inactive: 0 | inactive: 0
24 | CCCCNc1nc(N)c2[nH]c(=O)n(Cc3ccc(C)nc3)c2n1 (10 µM) | inactive: 0 | inactive: 0 | inactive: 0 | inactive: 0 | inactive: 0 | inactive: 0 | inactive: 0 | inactive: 0 | inactive: 0 | inactive: 0
25 | Nc1ncnc2c1ncn2[C@@H]1O[C@@H]2COP(O)(=S)O[C@H]2[C@H]1O (stereo not given in full) [Sp-cAMPS (sodium salt)] (10 µM) | inactive: 0 | inactive: 0 | inactive: 0 | inactive: 0 | inactive: 0 | inactive: 0 | inactive: 0 | inactive: 0 | inactive: 0 | inactive: 0
26 | COc1ccc2c(c[n+](C)c3c4cc5c(cc4ccc23)OCO5)c1OC [Chelerythrine (chloride)] (10 µM) | inactive: 0 | inactive: 0 | inactive: 0 | inactive: 0 | inactive: 0 | inactive: 0 | inactive: 0 | inactive: 0 | inactive: 0 | inactive: 0
27 | O=C(O)c1sc2cc(Cl)ccc2c1Cl (10 µM) | inactive: 0 | inactive: 0 | inactive: 0 | inactive: 0 | inactive: 0 | inactive: 0 | inactive: 0 | inactive: 0 | inactive: 0 | inactive: 0
28 | COc1ccc(N(C(=O)Oc2c(C)cccc2C)c2ccnc(Nc3ccc(N4CCN(C)CC4)cc3)n2)c(OC)c1 (2.5 µM) | inactive: 0 | inactive: 0 | inactive: 0 | inactive: 0 | inactive: 0 | inactive: 0 | inactive: 0 | inactive: 0 | inactive: 0 | inactive: 0

Only kinase-Nluc reporter destabilization hit call [4] and kinase-Nluc reporter destabilization hit call [3], for some of the entries so far:
Row,SMILES,kinase-Nluc reporter destabilization hit call [4],kinase-Nluc reporter destabilization hit call [3]
8,Cc1ccccc1-n1c(Cn2ncc3c(N)ncnc32)nc2cccc(C)c2c1=O (10 µM),inactive: 0,inactive: 0
23,O=C1c2ccccc2C(=O)c2c1cccc2-c1cnn(C2CCNCC2)c1 [PDK4-IN-1 (hydrochloride)] (10 µM),inactive: 0,inactive: 0
